Assay results taken from publication PMC8000447, “Assessment of Finite and Infinite Dose In Vitro Experiments in Transdermal Drug Delivery” (Pharmaceutics, 2021).

Experiment: Penetration assay with finite dosage using vertical Franz diffusion cells
Format: in vitro ADME, pig
Settings: finite dose 20 µL, 24 h exposure

Compound | Mass balance (%)
CC(C)Cc1ccc(C(C)C(=O)O)cc1 (stereo not drawn) [Ibuprofen, ibuprofen] | 92.81 ± 13.97%
Cn1c(=O)c2c(ncn2C)n(C)c1=O [Caffeine, caffeine] | 98.92 ± 1.32%
O=C(O)Cc1ccccc1Nc1c(Cl)cccc1Cl [Diclofenac sodium] | 103.80 ± 9.21%
